Hit rate of the full screen: of about 390,000 compounds, about 4,000 (1%) were called active. Inconclusive means that the source gave no clear call. Such entries were picked first, then a sample of the others. Calls follow the shape of the dose curve; as a rule, active = well fitted inhibition curve with a large enough effect; inconclusive = small, poorly fitted or top-dose-only effect, or another doubt; inactive = no such curve, though single readings can be large or run the other way. A potency beside an inconclusive call is a rough fit, not a confirmed value.
target: DNA polymerase iota (Homo sapiens) (UniProt Q9UNA4); assay: qHTS for Inhibitors of Polymerase Iota; details: Pol iota fluorescent replication assay, 10 min; series mostly up to 115 µM
Outline: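 Fluorescent replication assay read twice, at 0 min and 10 min after adding 50 nM (final) substrate. Enzyme (10 nM) and compounds were first incubated 15 min at room temperature; enzyme-free buffer wells were negative controls.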
Potency is read from the fitted curve at half-maximal effect.

Protein sequences, listed by entry. Tags and fused reporters are not part of them. Lines headed by an entry give the natural chain unless they say otherwise; changes in a name come on top.
UniProt Q9UNA4: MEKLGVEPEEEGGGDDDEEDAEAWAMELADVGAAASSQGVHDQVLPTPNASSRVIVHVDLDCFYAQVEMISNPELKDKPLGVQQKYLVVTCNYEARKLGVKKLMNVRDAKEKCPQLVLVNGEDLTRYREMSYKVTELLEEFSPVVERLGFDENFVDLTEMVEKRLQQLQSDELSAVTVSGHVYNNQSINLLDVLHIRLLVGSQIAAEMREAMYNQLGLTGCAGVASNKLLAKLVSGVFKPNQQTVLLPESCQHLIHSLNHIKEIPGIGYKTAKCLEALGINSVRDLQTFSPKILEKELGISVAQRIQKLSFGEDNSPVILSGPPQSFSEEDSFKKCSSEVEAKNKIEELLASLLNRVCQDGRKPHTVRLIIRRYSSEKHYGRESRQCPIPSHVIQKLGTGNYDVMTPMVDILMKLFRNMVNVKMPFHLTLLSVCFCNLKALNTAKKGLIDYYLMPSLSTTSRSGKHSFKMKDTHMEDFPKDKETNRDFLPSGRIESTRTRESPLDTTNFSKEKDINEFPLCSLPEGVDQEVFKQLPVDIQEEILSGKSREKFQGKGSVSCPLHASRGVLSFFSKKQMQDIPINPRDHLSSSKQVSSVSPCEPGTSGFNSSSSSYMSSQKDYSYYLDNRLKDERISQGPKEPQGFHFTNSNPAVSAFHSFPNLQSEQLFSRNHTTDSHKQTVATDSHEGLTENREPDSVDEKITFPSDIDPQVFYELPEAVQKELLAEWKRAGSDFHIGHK

Potency, inactive:
COc1cccc(CCNc2ncnc3c2nnn3C)c1
O=C1Cc2cc(O)ccc2O1
Cc1ccc(N(CC(=O)Nc2ccc(Br)c(C)c2)S(=O)(=O)c2cccs2)cc1
O=C(CCCc1ccccc1)c1ccccc1
Cc1ccc(-c2cc(C(=O)N3CCN(S(=O)(=O)c4ccc(Br)s4)CC3)[nH]n2)c(C)c1
CCN(Cc1ccccc1)c1ccc(/C=C/c2ccnc3ccccc23)cc1
CC1CCCC2(C1)NC(=S)N(c1ccccc1)N2 (centres undefined)
CCN(CC)CCn1c2c(c(SCC(=O)Nc3ccc4c(c3)OCCO4)nc1=O)CCCC2
N=C1SCC(=O)N1c1ccccc1Cl
CCc1nn(CC(=O)NC2CC2)c(=O)c2cc3ccccc3n12
COc1ccccc1/C=C\C=N\NC(=O)CCn1nnc2ccccc21
O=C(CSc1nc(=O)n(Cc2ccco2)c2c1CCC2)Nc1cccc(F)c1

Potency, inconclusive:
CCOC(=O)NCc1ccc2[nH]c(C)cc2c1 3.16 µM [inhibitor, full curve, poor fit]
N#C/C(=N\Nc1cccc([N+](=O)[O-])c1)C(=O)c1ccc(Br)cc1 39.8 µM [inhibitor, single point]
Cc1ccc(C)c(CSc2nc3ccncc3n2Cc2nc(-c3ccccc3Cl)oc2C)c1 89.1 µM [inhibitor, single point]
COc1ccc(C(=O)C[n+]2cn(C(F)F)c3ccccc32)c(F)c1 35.5 µM [inhibitor, full curve, poor fit]
COC(=O)[C@]1(C)N[C@H](CN(C)C(=O)Nc2ccc(C)cc2)[C@@H]2C(=O)N(C)C(=O)[C@@H]21 10 µM [inhibitor, partial curve, poor fit]
O=C1CCCC(O)=C1N=Nc1c(Cl)cc(Cl)cc1Cl 112 µM [inhibitor, single point]
c1coc(-c2nnc(NC3=NCCC3)o2)c1 39.8 µM [inhibitor, single point]
C[C@H](NC(=O)c1nc[nH]c1C(=O)NCCCCCN)C(=O)OCc1ccccc1 39.8 µM [inhibitor, single point]
COc1cccc(CNc2nc3ccccc3n2CCN2CCCCC2)c1OC 1 µM [inhibitor, partial curve, poor fit]
O=C(Nc1ncn[nH]1)c1cc(S(=O)(=O)Nc2ccc(Cl)cc2)ccc1Cl 112 µM [inhibitor, partial curve, poor fit]
CCc1c(C)nc(SCC(=O)NNC(=O)Cc2ccc(OC)cc2)[nH]c1=O 89.1 µM [inhibitor, single point]
CNc1cc(CSC)nc(SCc2ccc(Cl)c(Cl)c2)n1 25.1 µM [inhibitor, single point]
C/C(Cn1nnc([N+](=O)[O-])n1)=N\NC(=O)c1ccccc1O 79.4 µM [inhibitor, partial curve]
Cc1ccc(CNC(=O)CS(=O)Cc2nc(-c3cccs3)oc2C)cc1 (centres undefined) 0.794 µM [inhibitor, partial curve, poor fit]
COc1ccc(CCn2nnnc2C(c2ccc(Cl)cc2)N2CCN(C)CC2)cc1OC (centres undefined) 10 µM [inhibitor, partial curve]
COc1ccc(-c2nn(-c3ccccc3)cc2C(=O)N(C)C)cc1 89.1 µM [inhibitor, partial curve, poor fit]
O=C(CSc1nnc(SCC(=O)c2ccco2)s1)c1ccco1 56.2 µM [inhibitor, partial curve, poor fit]
N#Cc1c(NC(=O)C2CC2)sc2c1CCCCC2 25.1 µM [inhibitor, single point]
Cc1cc(O)c(-c2cc(O)c(C)cc2O)cc1O 14.1 µM [inhibitor, full curve, poor fit]
O=C(NC1=NCCS1)c1ccc(F)c(S(=O)(=O)N2CCOCC2)c1 39.8 µM [inhibitor, partial curve, poor fit]
O=C(NCC1CCCO1)c1cc(-c2ccco2)nc2ccccc12 (centres undefined) 10 µM [inhibitor, partial curve, poor fit]
Cc1onc(-c2ccccc2Cl)c1C(=O)NC(=S)Nc1ccccc1F 50.1 µM [inhibitor, partial curve, poor fit]
CCCCC(=O)Nc1ccc(C(=O)NNC(=O)CCCOc2ccc(Cl)cc2Cl)cc1 79.4 µM [inhibitor, partial curve]
CCCSc1oc(-c2ccco2)nc1S(=O)(=O)c1ccc(Cl)cc1 31.6 µM [inhibitor, partial curve, poor fit]
O=C(c1ccc(F)cc1F)C1CCN(c2ccc([N+](=O)[O-])cn2)CC1 31.6 µM [inhibitor, single point]
Cc1cc(C)cc(N(CCC#N)C(=O)CSc2nc3ccccc3c(=O)[nH]2)c1 100 µM [inhibitor, single point]
CCCC[C@H]1CCCO[C@@](C(=O)NCc2ccccc2)(C(F)(F)F)C1 100 µM [inhibitor, single point]
N#Cc1c(NC(=O)CN2CCN(S(=O)(=O)c3ccc4c(c3)OCCO4)CC2)sc2c1CCC2 5.01 µM [inhibitor, partial curve, poor fit]
CCCc1nc2ccccc2c(=O)n1NC(=O)c1c(O)c2cccc3c2n(c1=O)CCC3 17.8 µM [inhibitor, partial curve, poor fit]

As a working copy, some entries already given.
Potency, inconclusive:
COc1ccc(CCn2nnnc2C(c2ccc(Cl)cc2)N2CCN(C)CC2)cc1OC (centres undefined) 10 µM [inhibitor, partial curve]
COc1ccc(-c2nn(-c3ccccc3)cc2C(=O)N(C)C)cc1 89.1 µM [inhibitor, partial curve, poor fit]

Next part.

Potency, active:
CC1=C(c2ccc(C(C)C)cc2)S(=O)(=O)N=C1N1CCN(C(=O)c2ccco2)CC1 50.1 µM
COc1cc(/C=C/C=C2/CC/C(=C/C=C/c3ccc(O)c(OC)c3)C2=O)ccc1O 3.55 µM
COc1ccc(S(=O)(=O)NCc2cccnc2)cc1NC(=O)c1ccccc1C 39.8 µM

Reference: PubChem BioAssay AID588590 (National Center for Advancing Translational Sciences (NCATS), 2011)
